In ChEMBL document CHEMBL1121911, “Analgesic narcotic antagonists. 8. 7 alpha-Alkyl-4,5 alpha-epoxymorphinan-6-ones” (1981):

System: Mus musculus
Assay: Narcotic agonistic activity in acetic acid mouse writhing assay after subcutaneous administration of the drug
Assay type: functional
Details: sc
Outline: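 Subcutaneous dosing. Salts were given in distilled H2O, and free bases were dissolved with 1 N HCl and then diluted. Each ED50 (agonist) or AD50 (antagonist) came from at least three doses, with at least five animals per dose.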

Q: How did the ED50 turn out when `CN1CC[C@]23c4c5ccc(O)c4O[C@H]2[C@@H](O)C=C[C@H]3[C@H]1C5` [MORPHINE] was run?
A: 2.1 µmol/kg
